Experimental data as given in patent US8980843B2 (Temple University—of the Commonwealth System of Higher …, priority 2009, dated 2015).

Assay: general procedure: Fmoc solid-phase peptide synthesis; Rink Amide AM Resin; HATU
Conditions: whole synthesis, 220 and 280 nm, scale of the general procedure 0.025-1 mmol

In the case of “Tyr(I2)-Ser-Thr(α-GalNAc)-Glu-Val-Val-Ala-Leu-Ser-Arg-AcpNH2”, the “final HPLC purity” value is reported as greater than 95%.
